From article PMC10911177, “Exploring the ATG9A interactome uncovers interaction with VPS13A” (Journal of cell science, 2024)

Amino acid sequences for entries named in this document (tags omitted).
UniProt Q709C8: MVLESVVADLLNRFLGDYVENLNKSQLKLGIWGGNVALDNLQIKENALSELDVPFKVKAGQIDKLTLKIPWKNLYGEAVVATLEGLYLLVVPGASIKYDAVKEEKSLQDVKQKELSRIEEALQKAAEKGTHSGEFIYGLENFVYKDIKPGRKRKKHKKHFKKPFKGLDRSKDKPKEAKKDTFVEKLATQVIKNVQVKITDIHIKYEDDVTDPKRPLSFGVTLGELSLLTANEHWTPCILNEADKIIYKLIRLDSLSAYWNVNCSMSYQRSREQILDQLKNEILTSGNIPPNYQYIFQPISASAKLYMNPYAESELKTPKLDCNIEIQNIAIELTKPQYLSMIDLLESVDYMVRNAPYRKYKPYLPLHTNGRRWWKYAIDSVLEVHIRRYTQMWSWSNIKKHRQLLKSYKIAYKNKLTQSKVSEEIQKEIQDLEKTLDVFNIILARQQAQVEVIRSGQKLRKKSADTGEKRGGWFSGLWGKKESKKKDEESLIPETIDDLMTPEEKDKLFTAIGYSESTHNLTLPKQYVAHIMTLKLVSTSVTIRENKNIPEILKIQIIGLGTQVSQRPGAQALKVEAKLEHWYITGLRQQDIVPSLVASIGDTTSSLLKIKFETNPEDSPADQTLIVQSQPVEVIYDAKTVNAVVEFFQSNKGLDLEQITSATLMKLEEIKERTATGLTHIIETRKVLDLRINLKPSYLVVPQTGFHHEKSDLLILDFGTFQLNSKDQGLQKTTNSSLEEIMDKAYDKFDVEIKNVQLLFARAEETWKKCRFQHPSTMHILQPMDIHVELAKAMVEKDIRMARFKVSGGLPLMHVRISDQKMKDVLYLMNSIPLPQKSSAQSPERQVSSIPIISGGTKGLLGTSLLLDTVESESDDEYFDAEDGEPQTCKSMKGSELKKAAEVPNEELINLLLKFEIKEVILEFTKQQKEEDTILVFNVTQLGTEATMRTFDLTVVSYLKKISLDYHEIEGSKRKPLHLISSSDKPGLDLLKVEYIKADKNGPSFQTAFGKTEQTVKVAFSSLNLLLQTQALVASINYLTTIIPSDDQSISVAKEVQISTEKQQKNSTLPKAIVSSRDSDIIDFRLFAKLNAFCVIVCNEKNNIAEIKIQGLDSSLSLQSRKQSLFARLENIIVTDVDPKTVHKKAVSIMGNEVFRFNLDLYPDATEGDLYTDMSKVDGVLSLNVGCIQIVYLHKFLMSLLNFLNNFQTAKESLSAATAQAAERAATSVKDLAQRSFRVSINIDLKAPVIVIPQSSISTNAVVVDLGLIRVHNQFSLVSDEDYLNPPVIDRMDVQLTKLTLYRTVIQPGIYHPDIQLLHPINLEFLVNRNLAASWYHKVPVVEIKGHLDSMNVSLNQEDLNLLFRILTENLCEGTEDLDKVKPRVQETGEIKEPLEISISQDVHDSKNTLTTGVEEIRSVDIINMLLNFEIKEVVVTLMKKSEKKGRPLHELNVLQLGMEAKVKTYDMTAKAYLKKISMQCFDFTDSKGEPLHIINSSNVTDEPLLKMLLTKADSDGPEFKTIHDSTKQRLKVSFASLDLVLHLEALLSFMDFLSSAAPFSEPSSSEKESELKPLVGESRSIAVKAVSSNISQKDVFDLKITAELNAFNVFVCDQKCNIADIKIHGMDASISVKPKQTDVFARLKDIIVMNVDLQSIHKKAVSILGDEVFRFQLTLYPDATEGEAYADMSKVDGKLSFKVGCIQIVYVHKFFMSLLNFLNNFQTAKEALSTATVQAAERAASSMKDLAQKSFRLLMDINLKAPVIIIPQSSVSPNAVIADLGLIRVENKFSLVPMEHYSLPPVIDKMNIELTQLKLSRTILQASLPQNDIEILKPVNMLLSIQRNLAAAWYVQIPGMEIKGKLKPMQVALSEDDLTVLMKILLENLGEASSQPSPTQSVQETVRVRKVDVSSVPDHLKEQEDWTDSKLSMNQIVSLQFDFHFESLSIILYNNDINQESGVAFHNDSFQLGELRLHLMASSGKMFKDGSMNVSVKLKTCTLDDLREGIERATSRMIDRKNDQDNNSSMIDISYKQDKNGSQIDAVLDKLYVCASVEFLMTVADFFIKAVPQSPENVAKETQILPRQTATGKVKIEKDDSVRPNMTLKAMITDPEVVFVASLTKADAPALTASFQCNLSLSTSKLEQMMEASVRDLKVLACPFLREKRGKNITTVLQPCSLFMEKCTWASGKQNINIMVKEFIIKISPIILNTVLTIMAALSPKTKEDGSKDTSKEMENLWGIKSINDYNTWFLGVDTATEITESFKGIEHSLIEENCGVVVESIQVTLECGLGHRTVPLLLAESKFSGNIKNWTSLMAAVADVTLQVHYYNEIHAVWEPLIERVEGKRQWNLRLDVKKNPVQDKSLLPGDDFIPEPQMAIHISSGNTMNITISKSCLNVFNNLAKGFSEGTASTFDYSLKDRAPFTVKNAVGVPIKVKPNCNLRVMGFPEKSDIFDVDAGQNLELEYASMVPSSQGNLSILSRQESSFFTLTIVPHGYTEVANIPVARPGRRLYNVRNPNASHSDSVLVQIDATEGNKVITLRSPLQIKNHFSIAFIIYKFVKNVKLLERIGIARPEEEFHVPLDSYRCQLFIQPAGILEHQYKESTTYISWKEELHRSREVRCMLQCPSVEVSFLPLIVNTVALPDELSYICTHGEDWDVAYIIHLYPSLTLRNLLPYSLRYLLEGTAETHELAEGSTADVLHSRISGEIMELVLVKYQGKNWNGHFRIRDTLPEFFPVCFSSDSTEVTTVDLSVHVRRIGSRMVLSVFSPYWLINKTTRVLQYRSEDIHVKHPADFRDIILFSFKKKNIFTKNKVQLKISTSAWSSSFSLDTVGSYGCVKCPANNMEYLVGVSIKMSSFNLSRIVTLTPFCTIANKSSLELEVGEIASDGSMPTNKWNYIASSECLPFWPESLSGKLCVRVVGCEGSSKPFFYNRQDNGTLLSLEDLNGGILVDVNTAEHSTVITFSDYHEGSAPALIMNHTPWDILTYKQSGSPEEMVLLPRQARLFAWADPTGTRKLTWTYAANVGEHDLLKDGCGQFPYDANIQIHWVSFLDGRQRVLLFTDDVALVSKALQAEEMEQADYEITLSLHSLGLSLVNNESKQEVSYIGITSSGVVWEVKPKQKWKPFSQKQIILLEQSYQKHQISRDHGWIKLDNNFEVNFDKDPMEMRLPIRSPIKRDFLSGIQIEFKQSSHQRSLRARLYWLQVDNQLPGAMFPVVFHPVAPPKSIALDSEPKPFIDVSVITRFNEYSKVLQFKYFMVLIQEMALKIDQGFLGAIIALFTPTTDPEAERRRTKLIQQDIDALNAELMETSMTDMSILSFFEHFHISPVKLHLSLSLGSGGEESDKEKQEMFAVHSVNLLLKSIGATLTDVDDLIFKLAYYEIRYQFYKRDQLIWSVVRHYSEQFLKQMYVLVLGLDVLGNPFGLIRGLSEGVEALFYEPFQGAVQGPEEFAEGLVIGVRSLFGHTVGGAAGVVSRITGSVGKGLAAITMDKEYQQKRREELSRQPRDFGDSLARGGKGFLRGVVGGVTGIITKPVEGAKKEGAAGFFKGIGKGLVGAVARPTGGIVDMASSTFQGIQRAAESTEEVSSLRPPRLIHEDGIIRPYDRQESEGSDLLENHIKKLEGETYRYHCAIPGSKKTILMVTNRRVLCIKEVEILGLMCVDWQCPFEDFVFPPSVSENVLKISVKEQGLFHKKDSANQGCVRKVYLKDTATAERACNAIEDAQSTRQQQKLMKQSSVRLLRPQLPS
UniProt O95573: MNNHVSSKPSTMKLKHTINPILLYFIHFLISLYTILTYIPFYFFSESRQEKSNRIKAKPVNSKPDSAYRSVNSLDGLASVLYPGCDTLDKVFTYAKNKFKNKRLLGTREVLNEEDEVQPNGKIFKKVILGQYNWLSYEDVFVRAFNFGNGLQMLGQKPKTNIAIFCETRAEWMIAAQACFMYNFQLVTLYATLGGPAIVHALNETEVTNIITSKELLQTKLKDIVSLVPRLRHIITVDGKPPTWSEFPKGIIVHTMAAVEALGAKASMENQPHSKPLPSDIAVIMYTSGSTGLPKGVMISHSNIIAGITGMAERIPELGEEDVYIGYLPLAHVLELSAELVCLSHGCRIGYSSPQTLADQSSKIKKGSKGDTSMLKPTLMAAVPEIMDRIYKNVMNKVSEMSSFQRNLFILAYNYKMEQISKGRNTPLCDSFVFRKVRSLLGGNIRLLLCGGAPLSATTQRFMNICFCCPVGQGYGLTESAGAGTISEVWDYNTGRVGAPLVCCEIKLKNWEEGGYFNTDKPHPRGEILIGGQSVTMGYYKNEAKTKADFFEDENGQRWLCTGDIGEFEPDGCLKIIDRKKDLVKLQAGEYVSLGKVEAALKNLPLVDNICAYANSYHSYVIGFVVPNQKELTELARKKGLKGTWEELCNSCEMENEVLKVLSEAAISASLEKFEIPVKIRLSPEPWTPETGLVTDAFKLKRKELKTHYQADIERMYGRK

B1: ACSL1 (endogenous) (protein, UniProt P33121 1-698)
chain: MQAHELFRYFRMPELVDFRQYVRTLPTNTLMGFGAFAALTTFWYATRPKPLKPPCDLSMQSVEVAGSGGARRSALLDSDEPLVYFYDDVTTLYEGFQRGIQVSNNGPCLGSRKPDQPYEWLSYKQVAELSECIGSALIQKGFKTAPDQFIGIFAQNRPEWVIIEQGCFAYSMVIVPLYDTLGNEAITYIVNKAELSLVFVDKPEKAKLLLEGVENKLIPGLKIIVVMDAYGSELVERGQRCGVEVTSMKAMEDLGRANRRKPKPPAPEDLAVICFTSGTTGNPKGAMVTHRNIVSDCSAFVKATENTVNPCPDDTLISFLPLAHMFERVVECVMLCHGAKIGFFQGDIRLLMDDLKVLQPTVFPVVPRLLNRMFDRIFGQANTTLKRWLLDFASKRKEAELRSGIIRNNSLWDRLIFHKVQSSLGGRVRLMVTGAAPVSATVLTFLRAALGCQFYEGYGQTECTAGCCLTMPGDWTAGHVGAPMPCNLIKLVDVEEMNYMAAEGEGEVCVKGPNVFQGYLKDPAKTAEALDKDGWLHTGDIGKWLPNGTLKIIDRKKHIFKLAQGEYIAPEKIENIYMRSEPVAQVFVHGESLQAFLIAIVVPDVETLCSWAQKRGFEGSFEELCRNKDVKKAILEDMVRLGKDSGLKPFEQVKGITLHPELFSIDNGLLTPTMKAKRPELRNYFRSQIDDLYSTIKV
B2: Flotilin-1 (protein, UniProt O75955 1-427)
chain: MFFTCGPNEAMVVSGFCRSPPVMVAGGRVFVLPCIQQIQRISLNTLTLNVKSEKVYTRHGVPISVTGIAQVKIQGQNKEMLAAACQMFLGKTEAEIAHIALETLEGHQRAIMAHMTVEEIYKDRQKFSEQVFKVASSDLVNMGISVVSYTLKDIHDDQDYLHSLGKARTAQVQKDARIGEAEAKRDAGIREAKAKQEKVSAQYLSEIEMAKAQRDYELKKAAYDIEVNTRRAQADLAYQLQVAKTKQQIEEQRVQVQVVERAQQVAVQEQEIARREKELEARVRKPAEAERYKLERLAEAEKSQLIMQAEAEAASVRMRGEAEAFAIGARARAEAEQMAKKAEAFQLYQEAAQLDMLLEKLPQVAEEISGPLTSANKITLVSSGSGTMGAAKVTGEVLDILTRLPESVERLTGVSISQVNHKPLRTA
B3: Flotilin-2 (protein, UniProt Q14254 1-428)
chain: MGNCHTVGPNEALVVSGGCCGSDYKQYVFGGWAWAWWCISDTQRISLEIMTLQPRCEDVETAEGVALTVTGVAQVKIMTEKELLAVACEQFLGKNVQDIKNVVLQTLEGHLRSILGTLTVEQIYQDRDQFAKLVREVAAPDVGRMGIEILSFTIKDVYDKVDYLSSLGKTQTAVVQRDADIGVAEAERDAGIREAECKKEMLDVKFMADTKIADSKRAFELQKSAFSEEVNIKTAEAQLAYELQGAREQQKIRQEEIEIEVVQRKKQIAVEAQEILRTDKELIATVRRPAEAEAHRIQQIAEGEKVKQVLLAQAEAEKIRKIGEAEAAVIEAMGKAEAERMKLKAEAYQKYGDAAKMALVLEALPQIAAKIAAPLTKVDEIVVLSGDNSKVTSEVNRLLAELPASVHALTGVDLSKIPLIKKATGVQV
B4: cancer-related nucleoside-triphosphatase (protein, UniProt Q9BSD7 1-190)
chain: MARHVFLTGPPGVGKTTLIHKASEVLKSSGVPVDGFYTEEVRQGGRRIGFDVVTLSGTRGPLSRVGLEPPPGKRECRVGQYVVDLTSFEQLALPVLRNADCSSGPGQRVCVIDEIGKMELFSQLFIQAVRQTLSTPGTIILGTIPVPKGKPLALVEEIRNRKDVKVFNVTKENRNHLLPDIVTCVQSSRK

molecular target: T1, ATG9A (endogenous) (human (endogenous in HEK293A)) (UniProt Q7Z3C6); experiment: affinity purification with mass spectrometry; IP of endogenous ATG9A with Armenian hamster anti-ATG9A on protein A Dynabeads after solubilisation in 1% Triton X-100 or 1% LMNG; control hamster IgM; LC-MS/MS, LFQ
T1 sequence: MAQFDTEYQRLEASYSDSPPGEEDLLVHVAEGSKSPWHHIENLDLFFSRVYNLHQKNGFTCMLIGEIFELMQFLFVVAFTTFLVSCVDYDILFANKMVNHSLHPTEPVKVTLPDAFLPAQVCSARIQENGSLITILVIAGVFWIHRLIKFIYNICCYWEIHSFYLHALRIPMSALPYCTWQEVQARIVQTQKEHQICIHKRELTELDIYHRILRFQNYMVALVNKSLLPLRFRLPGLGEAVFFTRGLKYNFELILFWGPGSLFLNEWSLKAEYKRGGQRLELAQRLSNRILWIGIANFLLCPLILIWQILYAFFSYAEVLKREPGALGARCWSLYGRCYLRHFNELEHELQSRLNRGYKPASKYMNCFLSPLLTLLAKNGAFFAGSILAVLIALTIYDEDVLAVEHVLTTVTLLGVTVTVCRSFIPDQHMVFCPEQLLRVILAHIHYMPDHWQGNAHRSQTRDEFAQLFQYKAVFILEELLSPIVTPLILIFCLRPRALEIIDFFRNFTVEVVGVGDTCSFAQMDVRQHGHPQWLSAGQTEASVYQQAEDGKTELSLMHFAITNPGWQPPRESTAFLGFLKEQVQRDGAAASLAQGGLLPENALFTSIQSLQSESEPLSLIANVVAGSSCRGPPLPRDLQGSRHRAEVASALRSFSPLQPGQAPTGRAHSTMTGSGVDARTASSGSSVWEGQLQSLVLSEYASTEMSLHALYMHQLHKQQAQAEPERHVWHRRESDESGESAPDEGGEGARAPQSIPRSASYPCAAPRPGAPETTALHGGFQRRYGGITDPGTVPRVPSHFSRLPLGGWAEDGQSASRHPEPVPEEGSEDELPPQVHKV

binding, binds:
VPS13C (endogenous) (from UniProt Q709C8 1-3753)
ACSL3 (endogenous) (from UniProt O95573 1-720)
VPS13A (endogenous) (from UniProt Q96RL7 1-3174)
B1
B2
B3
B4

These are yes or no findings as the source states them, for the method shown. Binding seen in cells or lysates may run through a third protein. Here binding means that the protein was enriched with, or labelled near, the bait; the list need not be complete.
